Experimental data reported in article PMC6107663, “Crystal structure of human Mediator subunit MED23” (Nature Communications, 2018).
Results are given in words; binding and its absence hold for the method and conditions named. In cells and extracts the contact can be indirect. Some results given as binding are weak or reduced against the parent protein; the word gives no strength.

Protein sequences, listed by entry. Tags and fused reporters are not part of them.
UniProt P49336: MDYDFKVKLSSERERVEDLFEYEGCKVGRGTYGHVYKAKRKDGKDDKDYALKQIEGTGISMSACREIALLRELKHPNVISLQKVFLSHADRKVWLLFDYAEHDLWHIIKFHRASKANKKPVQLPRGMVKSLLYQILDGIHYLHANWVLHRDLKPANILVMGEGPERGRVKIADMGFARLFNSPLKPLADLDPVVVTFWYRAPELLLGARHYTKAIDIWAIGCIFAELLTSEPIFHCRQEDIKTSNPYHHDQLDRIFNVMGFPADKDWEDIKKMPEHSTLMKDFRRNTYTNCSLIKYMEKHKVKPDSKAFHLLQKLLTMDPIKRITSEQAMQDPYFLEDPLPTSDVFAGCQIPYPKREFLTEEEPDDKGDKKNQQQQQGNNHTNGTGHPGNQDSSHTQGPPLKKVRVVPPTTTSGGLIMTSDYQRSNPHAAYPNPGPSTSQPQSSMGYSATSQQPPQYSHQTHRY
UniProt O60244: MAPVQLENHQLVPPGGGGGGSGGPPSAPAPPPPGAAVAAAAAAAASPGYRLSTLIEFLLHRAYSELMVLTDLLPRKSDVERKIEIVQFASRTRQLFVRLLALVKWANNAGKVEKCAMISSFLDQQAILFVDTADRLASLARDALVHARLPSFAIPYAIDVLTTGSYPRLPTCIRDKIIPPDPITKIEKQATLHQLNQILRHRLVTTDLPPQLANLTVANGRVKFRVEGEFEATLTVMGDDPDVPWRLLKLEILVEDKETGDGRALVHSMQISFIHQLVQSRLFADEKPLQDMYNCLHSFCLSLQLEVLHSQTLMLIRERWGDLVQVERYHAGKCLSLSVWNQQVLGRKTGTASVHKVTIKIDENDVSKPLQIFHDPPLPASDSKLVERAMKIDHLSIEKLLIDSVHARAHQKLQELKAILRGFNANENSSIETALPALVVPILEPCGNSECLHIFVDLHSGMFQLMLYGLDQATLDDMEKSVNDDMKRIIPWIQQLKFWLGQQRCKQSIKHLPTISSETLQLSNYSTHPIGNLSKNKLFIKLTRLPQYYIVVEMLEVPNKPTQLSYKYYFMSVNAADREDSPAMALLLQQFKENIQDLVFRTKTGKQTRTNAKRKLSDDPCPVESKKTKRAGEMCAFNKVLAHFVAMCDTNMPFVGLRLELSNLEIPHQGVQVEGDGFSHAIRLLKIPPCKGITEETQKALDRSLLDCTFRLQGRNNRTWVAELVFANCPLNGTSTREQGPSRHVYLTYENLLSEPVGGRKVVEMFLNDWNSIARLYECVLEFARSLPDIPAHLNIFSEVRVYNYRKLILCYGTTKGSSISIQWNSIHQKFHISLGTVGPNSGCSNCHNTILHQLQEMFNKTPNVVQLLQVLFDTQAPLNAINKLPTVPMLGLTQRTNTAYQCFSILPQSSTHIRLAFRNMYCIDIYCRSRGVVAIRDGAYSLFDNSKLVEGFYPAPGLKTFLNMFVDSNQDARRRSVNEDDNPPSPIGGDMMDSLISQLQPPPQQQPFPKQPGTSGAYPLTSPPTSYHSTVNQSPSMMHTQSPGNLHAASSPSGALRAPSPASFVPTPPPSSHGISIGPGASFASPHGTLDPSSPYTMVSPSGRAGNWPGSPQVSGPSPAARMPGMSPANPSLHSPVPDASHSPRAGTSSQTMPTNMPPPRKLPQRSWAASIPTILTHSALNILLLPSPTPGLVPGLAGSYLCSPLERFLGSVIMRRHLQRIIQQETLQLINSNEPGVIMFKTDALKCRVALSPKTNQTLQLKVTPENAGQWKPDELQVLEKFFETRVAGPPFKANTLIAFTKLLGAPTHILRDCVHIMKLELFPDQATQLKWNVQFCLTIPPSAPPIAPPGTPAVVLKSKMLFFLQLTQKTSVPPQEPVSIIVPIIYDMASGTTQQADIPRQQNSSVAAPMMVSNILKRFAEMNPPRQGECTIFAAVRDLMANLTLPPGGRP
UniProt Q15648: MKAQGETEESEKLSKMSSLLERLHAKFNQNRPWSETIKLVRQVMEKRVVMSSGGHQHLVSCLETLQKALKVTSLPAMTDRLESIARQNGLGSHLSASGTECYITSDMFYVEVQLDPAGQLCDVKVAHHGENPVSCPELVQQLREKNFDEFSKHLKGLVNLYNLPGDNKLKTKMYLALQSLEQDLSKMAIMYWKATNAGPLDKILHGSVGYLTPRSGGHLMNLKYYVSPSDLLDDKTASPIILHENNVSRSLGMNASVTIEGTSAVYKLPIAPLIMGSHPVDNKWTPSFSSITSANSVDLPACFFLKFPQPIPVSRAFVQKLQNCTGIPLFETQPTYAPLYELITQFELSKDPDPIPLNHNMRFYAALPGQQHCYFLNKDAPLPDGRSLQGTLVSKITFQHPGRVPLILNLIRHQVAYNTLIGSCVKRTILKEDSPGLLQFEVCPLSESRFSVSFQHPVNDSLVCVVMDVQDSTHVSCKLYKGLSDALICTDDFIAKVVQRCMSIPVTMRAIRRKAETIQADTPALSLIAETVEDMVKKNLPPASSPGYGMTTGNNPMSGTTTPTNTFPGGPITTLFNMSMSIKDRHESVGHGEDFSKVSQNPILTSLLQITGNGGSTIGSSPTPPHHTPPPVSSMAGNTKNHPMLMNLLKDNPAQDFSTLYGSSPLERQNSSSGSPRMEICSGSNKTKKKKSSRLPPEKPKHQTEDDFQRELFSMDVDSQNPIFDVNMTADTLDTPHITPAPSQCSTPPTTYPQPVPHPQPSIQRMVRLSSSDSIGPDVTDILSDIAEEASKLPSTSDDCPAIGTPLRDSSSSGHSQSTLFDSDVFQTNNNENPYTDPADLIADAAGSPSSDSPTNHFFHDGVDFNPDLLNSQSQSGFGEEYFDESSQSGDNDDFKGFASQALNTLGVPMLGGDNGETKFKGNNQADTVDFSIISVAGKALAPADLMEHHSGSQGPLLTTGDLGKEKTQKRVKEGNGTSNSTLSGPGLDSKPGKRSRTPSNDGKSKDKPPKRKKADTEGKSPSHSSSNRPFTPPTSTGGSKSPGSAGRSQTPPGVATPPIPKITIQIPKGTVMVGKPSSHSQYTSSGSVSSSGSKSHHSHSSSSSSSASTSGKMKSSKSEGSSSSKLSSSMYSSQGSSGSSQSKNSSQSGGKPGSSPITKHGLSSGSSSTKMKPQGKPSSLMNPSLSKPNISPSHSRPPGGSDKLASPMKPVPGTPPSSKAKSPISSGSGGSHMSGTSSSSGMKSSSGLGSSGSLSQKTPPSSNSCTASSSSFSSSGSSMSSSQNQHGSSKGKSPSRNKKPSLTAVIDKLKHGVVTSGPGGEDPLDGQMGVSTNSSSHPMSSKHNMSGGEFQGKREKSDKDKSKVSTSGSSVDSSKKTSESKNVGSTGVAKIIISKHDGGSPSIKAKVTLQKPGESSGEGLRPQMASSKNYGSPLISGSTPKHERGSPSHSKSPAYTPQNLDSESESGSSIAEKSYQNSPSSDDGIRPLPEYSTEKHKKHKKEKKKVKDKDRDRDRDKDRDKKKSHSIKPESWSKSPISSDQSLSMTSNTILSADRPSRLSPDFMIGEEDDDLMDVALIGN

Target: T1, MED23, endogenous, incorporated within the Mediator complex (human (endogenous in HEK-293)) (UniProt Q9ULK4)
T1 sequence: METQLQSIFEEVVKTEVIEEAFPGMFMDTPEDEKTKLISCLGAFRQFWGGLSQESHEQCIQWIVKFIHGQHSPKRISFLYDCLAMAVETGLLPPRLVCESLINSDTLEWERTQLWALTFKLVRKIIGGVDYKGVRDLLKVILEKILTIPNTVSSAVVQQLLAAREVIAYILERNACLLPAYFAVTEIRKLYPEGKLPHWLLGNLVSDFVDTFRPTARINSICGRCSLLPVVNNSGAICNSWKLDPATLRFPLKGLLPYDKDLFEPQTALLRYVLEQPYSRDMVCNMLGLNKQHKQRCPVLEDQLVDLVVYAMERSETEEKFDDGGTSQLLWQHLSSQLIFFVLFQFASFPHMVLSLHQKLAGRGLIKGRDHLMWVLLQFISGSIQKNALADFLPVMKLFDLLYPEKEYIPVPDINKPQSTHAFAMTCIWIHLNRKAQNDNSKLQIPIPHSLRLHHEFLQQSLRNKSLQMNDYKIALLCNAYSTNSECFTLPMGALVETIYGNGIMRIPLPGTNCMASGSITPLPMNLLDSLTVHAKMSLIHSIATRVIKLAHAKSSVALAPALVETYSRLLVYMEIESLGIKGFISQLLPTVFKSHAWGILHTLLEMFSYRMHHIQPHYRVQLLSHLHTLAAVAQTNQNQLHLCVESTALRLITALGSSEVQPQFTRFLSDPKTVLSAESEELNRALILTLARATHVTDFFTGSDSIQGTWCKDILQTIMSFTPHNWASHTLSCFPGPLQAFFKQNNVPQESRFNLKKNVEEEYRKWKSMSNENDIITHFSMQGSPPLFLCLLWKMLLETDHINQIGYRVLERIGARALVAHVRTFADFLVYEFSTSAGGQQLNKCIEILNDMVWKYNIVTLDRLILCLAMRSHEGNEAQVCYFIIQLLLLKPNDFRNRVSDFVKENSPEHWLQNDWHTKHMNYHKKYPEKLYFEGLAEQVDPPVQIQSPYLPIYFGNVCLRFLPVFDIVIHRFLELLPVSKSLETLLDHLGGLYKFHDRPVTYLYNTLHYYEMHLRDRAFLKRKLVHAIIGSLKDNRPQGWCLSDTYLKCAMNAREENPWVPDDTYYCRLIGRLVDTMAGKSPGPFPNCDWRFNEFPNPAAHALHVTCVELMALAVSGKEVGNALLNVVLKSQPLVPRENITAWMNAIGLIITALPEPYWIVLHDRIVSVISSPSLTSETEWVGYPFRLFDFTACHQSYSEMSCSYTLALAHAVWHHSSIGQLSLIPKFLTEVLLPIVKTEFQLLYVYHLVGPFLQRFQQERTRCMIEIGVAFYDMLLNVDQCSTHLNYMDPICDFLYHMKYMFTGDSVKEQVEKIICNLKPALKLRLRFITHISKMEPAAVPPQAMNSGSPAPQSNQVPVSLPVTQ
Test: co-IP; endogenous Mediator subunits found with MED23 in the Nb106 immuno-complexes from HEK-293 lysate; CaptureSelect C-tag Affinity Matrix; western blot

Row | Molecule | binding
1 | Cdk8 (from UniProt P49336 1-464) | binds
2 | Med14 (from UniProt O60244 1-1454) | binds
3 | Med1 (from UniProt Q15648 1-1581) | binds
4 | Med7 (protein, UniProt O43513 1-233) MGEPQQVSALPPPPMQYIKEYTDENIQEGLAPKPPPPIKDSYMMFGNQFQCDDLIIRPLESQGIERLHPMQFDHKKELRKLNMSILINFLDLLDILIRSPGSIKREEKLEDLKLLFVHVHHLINEYRPHQARETLRVMMEVQKRQRLETAERFQKHLERVIEMIQNCLASLPDDLPHSEAGMRVKTEPMDADDSNNCTGQNEHQRENSGHRRDQIIEKDAALCVLIDEMNERP | binds
5 | Med16 (protein, UniProt Q9Y2X0 1-877) MCDLRRPAAGGMMDLAYVCEWEKWSKSTHCPSVPLACAWSCRNLIAFTMDLRSDDQDLTRMIHILDTEHPWDLHSIPSEHHEAITCLEWDQSGSRLLSADADGQIKCWSMADHLANSWESSVGSLVEGDPIVALSWLHNGVKLALHVEKSGASSFGEKFSRVKFSPSLTLFGGKPMEGWIAVTVSGLVTVSLLKPSGQVLTSTESLCRLRGRVALADIAFTGGGNIVVATADGSSASPVQFYKVCVSVVSEKCRIDTEILPSLFMRCTTDLNRKDKFPAITHLKFLARDMSEQVLLCASSQTSSIVECWSLRKEGLPVNNIFQQISPVVGDKQPTILKWRILSATNDLDRVSAVALPKLPISLTNTDLKVASDTQFYPGLGLALAFHDGSVHIVHRLSLQTMAVFYSSAAPRPVDEPAMKRPRTAGPAVHLKAMQLSWTSLALVGIDSHGKLSVLRLSPSMGHPLEVGLALRHLLFLLEYCMVTGYDWWDILLHVQPSMVQSLVEKLHEEYTRQTAALQQVLSTRILAMKASLCKLSPCTVTRVCDYHTKLFLIAISSTLKSLLRPHFLNTPDKSPGDRLTEICTKITDVDIDKVMINLKTEEFVLDMNTLQALQQLLQWVGDFVLYLLASLPNQGSLLRPGHSFLRDGTSLGMLRELMVVIRIWGLLKPSCLPVYTATSDTQDSMSLLFRLLTKLWICCRDEGPASEPDEALVDECCLLPSQLLIPSLDWLPASDGLVSRLQPKQPLRLQFGRAPTLPGSAATLQLDGLARAPGQPKIDHLRRLHLGACPTEECKACTRCGCVTMLKSPNRTTAVKQWEQRWIKNCLAVEGRGPDACVTSRASEEAPAFVQLGPQSTHHSPRTPRSLDHLHPEDRP | binds
6 | Med18 (protein, UniProt Q9BUE0 1-208) MEAPPVTMMPVTGGTINMMEYLLQGSVLDHSLESLIHRLRGLCDNMEPETFLDHEMVFLLKGQQASPFVLRARRSMDRAGAPWHLRYLGQPEMGDKNRHALVRNCVDIATSENLTDFLMEMGFRMDHEFVAKGHLFRKGIMKIMVYKIFRILVPGNTDSTEALSLSYLVELSVVAPAGQDMVSDDMKNFAEQLKPLVHLEKIDPKRLM | binds
7 | Med24 (protein, UniProt O75448 1-989) MKVVNLKQAILQAWKERWSDYQWAINMKKFFPKGATWDILNLADALLEQAMIGPSPNPLILSYLKYAISSQMVSYSSVLTAISKFDDFSRDLCVQALLDIMDMFCDRLSCHGKAEECIGLCRALLSALHWLLRCTAASAERLREGLEAGTPAAGEKQLAMCLQRLEKTLSSTKNRALLHIAKLEEASSWTAIEHSLLKLGEILANLSNPQLRSQAEQCGTLIRSIPTMLSVHAEQMHKTGFPTVHAVILLEGTMNLTGETQSLVEQLTMVKRMQHIPTPLFVLEIWKACFVGLIESPEGTEELKWTAFTFLKIPQVLVKLKKYSHGDKDFTEDVNCAFEFLLKLTPLLDKADQRCNCDCTNFLLQECGKQGLLSEASVNNLMAKRKADREHAPQQKSGENANIQPNIQLILRAEPTVTNILKTMDADHSKSPEGLLGVLGHMLSGKSLDLLLAAAAATGKLKSFARKFINLNEFTTYGSEESTKPASVRALLFDISFLMLCHVAQTYGSEVILSESRTGAEVPFFETWMQTCMPEEGKILNPDHPCFRPDSTKVESLVALLNNSSEMKLVQMKWHEACLSISAAILEILNAWENGVLAFESIQKITDNIKGKVCSLAVCAVAWLVAHVRMLGLDEREKSLQMIRQLAGPLFSENTLQFYNERVVIMNSILERMCADVLQQTATQIKFPSTGVDTMPYWNLLPPKRPIKEVLTDIFAKVLEKGWVDSRSIHIFDTLLHMGGVYWFCNNLIKELLKETRKEHTLRAVELLYSIFCLDMQQVTLVLLGHILPGLLTDSSKWHSLMDPPGTALAKLAVWCALSSYSSHKGQASTRQKKRHREDIEDYISLFPLDDVQPSKLMRLLSSNEDDANILSSPTDRSMSSSLSASQLHTVNMRDPLNRVLANLFLLISSILGSRTAGPHTQFVQWFMEECVDCLEQGGRGSVLQFMPFTTVSELVKVSAMSSPKVVLAITDLSLPLGRQVAAKAIAAL | binds
